Results reported in publication PMC9529944, “Molecular asymmetry of a photosynthetic supercomplex from green sulfur bacteria” (Nature Communications, 2022).
Results are given in words; binding and its absence hold for the method and conditions named. Binding calls can cover weak binding; strength is not graded here.

Chains of the proteins cited; added tags and fusions are not shown. Lines headed by an entry give the natural chain unless they say otherwise; changes in a name come on top.
UniProt Q8KG87: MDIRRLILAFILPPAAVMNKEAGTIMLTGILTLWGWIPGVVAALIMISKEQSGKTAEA
UniProt Q8KDI3: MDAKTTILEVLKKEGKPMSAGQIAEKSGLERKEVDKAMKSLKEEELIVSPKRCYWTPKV

T1: Fenna-Matthews-Olson (FMO) complex (Chlorobaculum tepidum (endogenous in C. tepidum TLS, DSM 12025)) (UniProt Q46393)
T1 sequence: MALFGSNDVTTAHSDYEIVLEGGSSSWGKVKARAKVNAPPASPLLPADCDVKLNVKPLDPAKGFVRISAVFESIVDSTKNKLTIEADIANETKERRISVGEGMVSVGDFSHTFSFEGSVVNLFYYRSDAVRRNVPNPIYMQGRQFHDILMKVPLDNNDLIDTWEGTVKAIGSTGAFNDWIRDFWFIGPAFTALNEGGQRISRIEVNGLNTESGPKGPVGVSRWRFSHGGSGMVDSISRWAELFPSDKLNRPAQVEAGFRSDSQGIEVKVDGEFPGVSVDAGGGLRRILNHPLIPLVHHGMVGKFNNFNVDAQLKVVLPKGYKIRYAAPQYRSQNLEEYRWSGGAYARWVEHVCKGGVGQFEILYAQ

T2: PscB (Chlorobaculum tepidum (endogenous in C. tepidum TLS, DSM 12025)) (UniProt Q8KAY1)
T2 sequence: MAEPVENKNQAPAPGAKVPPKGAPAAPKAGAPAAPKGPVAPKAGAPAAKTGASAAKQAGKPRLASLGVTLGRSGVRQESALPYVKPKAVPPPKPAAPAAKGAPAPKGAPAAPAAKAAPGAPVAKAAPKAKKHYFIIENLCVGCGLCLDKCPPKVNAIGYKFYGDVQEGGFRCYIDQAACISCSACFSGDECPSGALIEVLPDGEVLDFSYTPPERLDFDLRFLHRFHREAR

T3: PscC (cytochrome c subunit) (Chlorobaculum tepidum (endogenous in C. tepidum TLS, DSM 12025)) (UniProt O07091)
T3 sequence: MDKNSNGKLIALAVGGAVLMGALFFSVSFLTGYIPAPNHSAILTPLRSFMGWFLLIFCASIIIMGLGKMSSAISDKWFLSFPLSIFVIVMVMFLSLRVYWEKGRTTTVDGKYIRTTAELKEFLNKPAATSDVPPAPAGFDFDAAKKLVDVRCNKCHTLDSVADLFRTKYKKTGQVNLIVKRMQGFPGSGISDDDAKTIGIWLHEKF


Assays:
Test in all cases: cryo-EM structure; single-particle cryo-EM of the native supercomplex extracted with DDM from C. tepidum membranes; RC-FMO2 at 3.08 Å (local 2.92 and 3.06 Å), RC-FMO1 at 3.49 Å; 20 mM Tris-Cl pH 8.0, 200 mM NaCl, 0.17 mM DDM; both purified
[1] = target: T1, Fenna-Matthews-Olson (FMO) complex (Chlorobaculum tepidum (endogenous in C. tepidum TLS, DSM 12025))
[2] = target: T2, PscB (Chlorobaculum tepidum (endogenous in C. tepidum TLS, DSM 12025))
[3] = target: T3, PscC (cytochrome c subunit) (Chlorobaculum tepidum (endogenous in C. tepidum TLS, DSM 12025))
[4] = target: PscA subunit (reaction center core protein) (Chlorobaculum tepidum (endogenous in C. tepidum TLS, DSM 12025))

| Molecule | binding [1] | binding [2] | binding [3] | binding [4] |
| --- | --- | --- | --- | --- |
| PscF (from UniProt Q8KG87) | binds | binds | – | – |
| PscE (from UniProt Q8KDI3) | binds | – | binds | – |
| Fenna-Matthews-Olson (FMO) complex (natural protein, UniProt Q46393 1-366, looked up, FMO bacteriochlorophyll a protein of Chlorobaculum tepidum TLS; homotrimer, each monomer with eight BChl a; Two trimers (FMO1, FMO2) of the same protein sit on one reaction center in the RC-FMO2 structure; they are one molecule here; also called FMO trimer; FMO1) MALFGSNDVTTAHSDYEIVLEGGSSSWGKVKARAKVNAPPASPLLPADCDVKLNVKPLDPAKGFVRISAVFESIVDSTKNKLTIEADIANETKERRISVGEGMVSVGDFSHTFSFEGSVVNLFYYRSDAVRRNVPNPIYMQGRQFHDILMKVPLDNNDLIDTWEGTVKAIGSTGAFNDWIRDFWFIGPAFTALNEGGQRISRIEVNGLNTESGPKGPVGVSRWRFSHGGSGMVDSISRWAELFPSDKLNRPAQVEAGFRSDSQGIEVKVDGEFPGVSVDAGGGLRRILNHPLIPLVHHGMVGKFNNFNVDAQLKVVLPKGYKIRYAAPQYRSQNLEEYRWSGGAYARWVEHVCKGGVGQFEILYAQ | – | – | – | binds |
| PscC (cytochrome c subunit) (protein, UniProt O07091 1-206) MDKNSNGKLIALAVGGAVLMGALFFSVSFLTGYIPAPNHSAILTPLRSFMGWFLLIFCASIIIMGLGKMSSAISDKWFLSFPLSIFVIVMVMFLSLRVYWEKGRTTTVDGKYIRTTAELKEFLNKPAATSDVPPAPAGFDFDAAKKLVDVRCNKCHTLDSVADLFRTKYKKTGQVNLIVKRMQGFPGSGISDDDAKTIGIWLHEKF | – | – | – | binds |
